According to PubChem BioAssay AID504834 (National Center for Advancing Translational Sciences (NCATS), 2011):
The whole screen tested about 320,000 compounds, of which about 22,000 (6.9%) were called active. Inconclusive results, whose numbers are uncertain, are shown with a selection of clear calls. Calls come from the whole dose curve; as a rule, active = well fitted inhibition curve with a large enough effect; inconclusive = small, poorly fitted or top-dose-only effect, or another doubt; inactive = no such curve, though single readings can be large or run the other way. Potencies beside an inconclusive call are fits to weak or partial responses and may not hold up.
% is set by controls: 0 for no effect and ±100 for the full control effect; potency is the fitted concentration of half-maximal effect.

Assay: Primary qHTS for delayed death inhibitors of the malarial parasite plastid, 96 hour incubation
Conditions: P. falciparum luciferase reporter growth; series mostly up to 28.7 µM; activity change, negative = inhibition: at the top concentration
Procedure, shortened: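 Plates of compound plus infected erythrocytes (2% hematocrit, 0.05% parasitemia final) incubate 96 hours, 37 C, 5% CO2. Detection reagent added; reduced luminescence from the parasites' luciferase reporter flags inhibition.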
In the case of `Cc1cc(NS(=O)(=O)c2ccc(NC(=O)c3cc(-c4ccccc4Cl)nc4ccccc34)cc2)no1`, the Potency is reported as inconclusive: 9.28 µM [inhibitor, single point].
In the case of `O=C(CCNC(=O)C1CCN(S(=O)(=O)c2ccccc2)CC1)Nc1ccccc1`, the Potency is reported as inconclusive: 18.5 µM [inhibitor, single point].
With `C=C1c2c(Cl)ccc(O)c2C(O)=C2C(=O)[C@@]3(O)C(O)=C(C(N)=O)C(=O)[C@@H](N(C)C)[C@@H]3[C@@H](O)[C@H]12` the Potency was active: 0.721 µM.
For `CN(CCNC(=O)c1cn(C)c2ccc(S(=O)(=O)N3CCCC3)cc2c1=O)CCc1ccccc1`, the Potency was inconclusive: 18.5 µM [inhibitor, single point].
For `CC1CN(CCOc2cccc(Oc3ccccc3)c2)CC(C)O1` (stereo not given), the Potency was inconclusive: 18.5 µM [inhibitor, single point].
With `CSC1=NCCN1C(=O)Cc1ccc(F)cc1` the Potency was active: 9.28 µM.
With `CCOC(=O)N1CCN(c2ncnc3scc(-c4ccccc4)c23)CC1` the Potency was inconclusive: 16.5 µM [inhibitor, single point].
In the case of `CC(C)c1c(C(=O)N/N=C/c2ccc(C(F)(F)F)cc2)nnn1-c1nonc1N`, the Potency is reported as inconclusive: 10.4 µM [inhibitor, single point].
For `CC1CCc2c(sc3ncnc(SC(C)C(=O)NCC4CCCO4)c23)C1` (stereo not given), the Potency was inconclusive: 18.5 µM [inhibitor, single point].
With `Cn1c(=O)c2c(nc(NCC(O)CO)n2CCc2ccccc2)n(C)c1=O` (stereo not given) the Potency was inconclusive: 4.15 µM [inhibitor, partial curve, poor fit].
For `CN(C)c1ccc2c3c(ccc(N(C)C)c13)C(=O)OC2`, the “activity change, negative = inhibition” value was inactive: -4.37%.
In the case of `Cn1c(=O)c2c(nc(NCc3ccccc3)n2CC(N)=O)n(C)c1=O`, the “activity change, negative = inhibition” value is reported as inactive: 23.9%.
For `Cc1c2ccccc2nc2c(F)c(N(C)C)c(F)c(F)c12`, the “activity change, negative = inhibition” value was inactive: 29.6%.
With `O=C1N/C(=N\c2ccccn2)SC1Cc1ccccc1Cl` (stereo not given) the Potency was inconclusive: 5.22 µM [inhibitor, partial curve, poor fit].
With `CC(C)CCNC(=O)c1ccc(Cl)c(NC(=O)Cc2ccccc2)c1` the Potency was inconclusive: 18.5 µM [inhibitor, single point].
With `COc1ccc(CN2C(=O)c3ccc(C(=O)O)cc3C2=O)cc1` the Potency was active: 9.28 µM.
In the case of `N#Cc1ccc(Oc2nc(C#N)cc(-c3ccccc3)n2)cc1`, the Potency is reported as inconclusive: 0.415 µM [inhibitor, partial curve, poor fit].
In the case of `Cc1ccc(NC(=O)c2cc(S(=O)(=O)NCCC3=CCCCC3)ccc2F)cc1F`, the Potency is reported as inconclusive: 10.4 µM [inhibitor, single point].
With `Cn1c(SCC(=O)NCCc2ccccc2)nc2c([nH]c3ccccc32)c1=O` the Potency was inconclusive: 5.86 µM [inhibitor, partial curve, poor fit].
For `O=C(NCCC(=O)N1CCCC(C(F)(F)F)C1)c1ccccc1Cl` (stereo not given), the Potency was inconclusive: 18.5 µM [inhibitor, single point].
In the case of `Cc1cc(C)c(COCc2cc(/C=N/O)c(C)cc2C)cc1/C=N/O`, the Potency is reported as active: 10.4 µM.
With `COc1ccc(OC)c(NC(=O)CSc2ccc3nnc(-c4cccnc4)n3n2)c1` the Potency was active: 11.7 µM.
With `COc1ccc(NC(=O)N2CCCCC2)cc1` the “activity change, negative = inhibition” value was inactive: -23%.
For `CCOC(=O)N1CCN(Cc2nc3cc(NC(=O)C(C)C)ccc3n2C)CC1`, the Potency was inconclusive: 2.94 µM [inhibitor, partial curve, poor fit].
For `Cc1nn(-c2ccccc2)c2sc(-c3nnc(SCC(=O)O)o3)cc12`, the Potency was inconclusive: 11.7 µM [inhibitor, single point].
For `Cc1ccc(NC(=O)CN(C)C(=O)c2cccc(S(=O)(=O)N3CCCC3)c2)cc1`, the Potency was inconclusive: 14.7 µM [inhibitor, partial curve, poor fit].
In the case of `Cc1ncoc1C(=O)N1CCc2c([nH]c3ccccc23)C1C1CCCCC1` (stereo not given), the Potency is reported as inconclusive: 10.4 µM [inhibitor, partial curve, poor fit].
With `COC(=O)c1ccccc1NC(=O)CN1CCC(C(=O)c2ccc3c(c2)OCCO3)CC1` the Potency was active: 1.47 µM.
With `Cc1ccc(N2CC(C(=O)Nc3ccc(S(=O)(=O)Nc4ncccn4)cc3)CC2=O)cc1C` (stereo not given) the “activity change, negative = inhibition” value was inactive: 31%.
For `CCCS(=O)(=O)n1nc(-c2ccc(Br)cc2)cc1N`, the “activity change, negative = inhibition” value was inactive: -17.2%.
In the case of `Cc1cc(Nc2nc3ccccc3nc2Cl)n(-c2ccccc2C)n1`, the Potency is reported as active: 1.47 µM.
With `COc1ccc(NC(=O)c2cccc(OS(=O)(=O)N(C)C)c2)cc1` the “activity change, negative = inhibition” value was inactive: 8.77%.
In the case of `C[C@@H]1NC(=O)N(CCCn2ccnc2)C1=O`, the “activity change, negative = inhibition” value is reported as inactive: 12.3%.
For `CCNC(=S)N(Cc1ccc2c(c1)OCO2)C1CC(=O)N(c2ccc(OC)cc2)C1=O` (stereo not given), the Potency was inconclusive: 18.5 µM [inhibitor, single point].
With `CC(=O)c1ccc(OC(=O)CCc2ccccc2)cc1` the “activity change, negative = inhibition” value was inactive: 38%.
For `OCC1OC(n2nnc3ccccc32)C(O)C(O)C1O` (stereo not given), the Potency was inconclusive: 4.15 µM [inhibitor, partial curve, poor fit].
In the case of `CCOc1ccc(S(=O)(=O)NCCC(=O)N2CCN(c3ncccn3)CC2)cc1`, the Potency is reported as inconclusive: 7.38 µM [inhibitor, partial curve, poor fit].
For `Cc1c(Cl)cccc1NC(=S)NCc1ccco1`, the “activity change, negative = inhibition” value was inactive: 0%.
For `Cc1ccc(OCCNC(=O)c2cc(=O)[nH]c3ccccc23)cc1`, the “activity change, negative = inhibition” value was inactive: 7.29%.
With `CC(C)(C)c1ccc(C(=O)c2c[nH]c(C(=O)NCC3CCCO3)c2)cc1` (stereo not given) the Potency was inconclusive: 10.4 µM [inhibitor, single point].
For `O=C(c1ccccc1F)N1CCN(c2ccc([N+](=O)[O-])c(NCc3cccnc3)c2)CC1`, the Potency was active: 10.4 µM.
For `Cc1cccc(NC(=O)C2C3C=CC(O3)C2C(=O)O)c1` (stereo not given), the Potency was inconclusive: 11.7 µM [inhibitor, single point].
For `Cc1cc([N+](=O)[O-])nn1CC(=O)N1c2ccccc2CC1C` (stereo not given), the “activity change, negative = inhibition” value was inactive: 37%.
In the case of `CCCNC(=O)c1ccc(N2CCC3(CC2)CC(c2ccccc2)=NO3)c(NC(=O)Cc2ccc(F)cc2)c1`, the Potency is reported as active: 4.65 µM.
With `Cc1cc(C)nc(N2CCCC(C(=O)Nc3cc(F)ccc3C)C2)n1` (stereo not given) the Potency was inconclusive: 0.522 µM [inhibitor, partial curve, poor fit].
